# Measured values: the supplement of paper PMC8728848
# This is one part of the list.
# B1: CLEC9a (Mus musculus), Q8BRU4 (protein)
# chain: MHAEEIYTSLQWDIPTSEASQKCQSPSKCSGAWCVVTMISCVVCMGLLATSIFLGIKFFQVSSLVLEQQERLIQQDTALVNLTQWQRKYTLEYCQALLQRSLHSGSDCSPCPHNWIQNGKSCYYVFERWEMWNISKKSCLKEGASLFQIDSKEEMEFISSIGKLKGGNKYWVGVFQDGISGSWFWEDGSSPLSDLLPAERQRSAGQICGYLKDSTLISDKCDSWKYFICEKKAFGSCI
# Assays:
# Assay in all cases: glycan array binding signal (z-score within array); higher = stronger binding
# Details in all cases: glycan notation: IUPAC condensed, linker removed
# [1] = molecular target: Neu5Ac(a2-3)Gal(b1-4)[Fuc(a1-3)]GlcNAc(b1-3)GalNAc
# Procedure, shortened: (§1)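 The Consortium for Functional Glycomics database supplied 3228 glycan arrays, of which those lacking an available protein sequence were dropped. The binding signal, a within-array Z-score, was averaged across arrays of the same protein sequence and across linkers. Negative scores can be read as non-binding.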
# [2] = molecular target: Neu5Ac(a2-3)Gal(b1-4)[Fuc(a1-3)]GlcNAc(b1-6)[Gal(b1-3)]GalNAc
# Procedure, shortened: as §1
# [3] = molecular target: Neu5Ac(a2-3)Gal(b1-4)[Fuc(a1-3)]GlcNAc(b1-6)[Neu5Ac(a2-3)Gal(b1-3)]GalNAc
# Procedure, shortened: as §1
# [4] = molecular target: Neu5Ac(a2-3)Gal(b1-4)[Fuc(a1-3)]GlcNAc6S
# Procedure, shortened: as §1
# [5] = molecular target: Neu5Ac(a2-3)Gal6S(b1-4)GlcNAc
# Procedure, shortened: as §1
# [6] = molecular target: Neu5Ac(a2-3)Gal6S(b1-4)[Fuc(a1-3)]GlcNAc
# Procedure, shortened: as §1
# Neu5Ac(a2-3)GalNAc = molecular target: Neu5Ac(a2-3)GalNAc
# Procedure, shortened: as §1
# [7] = molecular target: Neu5Ac(a2-3)GalNAc(b1-4)GlcNAc
# Procedure, shortened: as §1
# [8] = molecular target: Neu5Ac(a2-3)[GalNAc(b1-4)]Gal(b1-4)Glc
# Procedure, shortened: as §1
# [9] = molecular target: Neu5Ac(a2-3)[GalNAc(b1-4)]Gal(b1-4)GlcNAc
# Procedure, shortened: as §1
# [10] = molecular target: Neu5Ac(a2-3)[GalNAc(b1-4)]Gal(b1-4)GlcNAc(b1-3)GalNAc
# Procedure, shortened: as §1
# [11] = molecular target: Neu5Ac(a2-3)[Neu5Ac(a2-6)]GalNAc
# Procedure, shortened: as §1
# Neu5Ac(a2-6)Gal = molecular target: Neu5Ac(a2-6)Gal
# Procedure, shortened: as §1
# Neu5Ac(a2-6)Gal(b1-4)Glc = molecular target: Neu5Ac(a2-6)Gal(b1-4)Glc
# Procedure, shortened: as §1
# [12] = molecular target: Neu5Ac(a2-6)Gal(b1-4)GlcNAc
# Procedure, shortened: as §1
# [13] = molecular target: Neu5Ac(a2-6)Gal(b1-4)GlcNAc(b1-2)Man(a1-3)Man(b1-4)GlcNAc(b1-4)GlcNAc
# Procedure, shortened: as §1
# [14] = molecular target: Neu5Ac(a2-6)Gal(b1-4)GlcNAc(b1-2)Man(a1-3)[Gal(b1-4)GlcNAc(b1-2)Man(a1-6)]Man(b1-4)GlcNAc(b1-4)GlcNAc
# Procedure, shortened: as §1
# [15] = molecular target: Neu5Ac(a2-6)Gal(b1-4)GlcNAc(b1-2)Man(a1-3)[GlcNAc(b1-2)Man(a1-6)]Man(b1-4)GlcNAc(b1-4)GlcNAc
# Procedure, shortened: as §1
# [16] = molecular target: Neu5Ac(a2-6)Gal(b1-4)GlcNAc(b1-2)Man(a1-3)[GlcNAc(b1-2)Man(b1-4)GlcNAc(b1-2)Man(a1-6)]Man(b1-4)GlcNAc(b1-4)GlcNAc
# Procedure, shortened: as §1
# [17] = molecular target: Neu5Ac(a2-6)Gal(b1-4)GlcNAc(b1-2)Man(a1-3)[Man(a1-6)]Man(b1-4)GlcNAc(b1-4)GlcNAc
# Procedure, shortened: as §1
# [18] = molecular target: Neu5Ac(a2-6)Gal(b1-4)GlcNAc(b1-2)Man(a1-3)[Neu5Ac(a2-6)Gal(b1-4)GlcNAc(b1-2)Man(a1-6)]Man(b1-4)GlcNAc(b1-4)GlcNAc
# Procedure, shortened: as §1
# [19] = molecular target: Neu5Ac(a2-6)Gal(b1-4)GlcNAc(b1-2)Man(a1-6)Man(b1-4)GlcNAc(b1-4)GlcNAc
# Procedure, shortened: as §1
# [20] = molecular target: Neu5Ac(a2-6)Gal(b1-4)GlcNAc(b1-2)Man(a1-6)[Gal(b1-4)GlcNAc(b1-2)Man(a1-3)]Man(b1-4)GlcNAc(b1-4)GlcNAc
# Procedure, shortened: as §1
# [21] = molecular target: Neu5Ac(a2-6)Gal(b1-4)GlcNAc(b1-2)Man(a1-6)[GlcNAc(b1-2)Man(a1-3)]Man(b1-4)GlcNAc(b1-4)GlcNAc
# Procedure, shortened: as §1
# [22] = molecular target: Neu5Ac(a2-6)Gal(b1-4)GlcNAc(b1-2)Man(a1-6)[Man(a1-3)]Man(b1-4)GlcNAc(b1-4)GlcNAc
# Procedure, shortened: as §1
# [23] = molecular target: Neu5Ac(a2-6)Gal(b1-4)GlcNAc(b1-3)Gal(b1-3)GlcNAc
# Procedure, shortened: as §1
# [24] = molecular target: Neu5Ac(a2-6)Gal(b1-4)GlcNAc(b1-3)Gal(b1-4)GlcNAc
# Procedure, shortened: as §1
# [25] = molecular target: Neu5Ac(a2-6)Gal(b1-4)GlcNAc(b1-3)Gal(b1-4)GlcNAc(b1-3)Gal(b1-4)GlcNAc
# Procedure, shortened: as §1
# [26] = molecular target: Neu5Ac(a2-6)Gal(b1-4)GlcNAc(b1-3)Gal(b1-4)[Fuc(a1-3)]GlcNAc(b1-3)Gal(b1-4)[Fuc(a1-3)]GlcNAc
# Procedure, shortened: as §1
# [27] = molecular target: Neu5Ac(a2-6)Gal(b1-4)GlcNAc(b1-3)GalNAc
# Procedure, shortened: as §1
# [28] = molecular target: Neu5Ac(a2-6)Gal(b1-4)GlcNAc6S
# Procedure, shortened: as §1
# Neu5Ac(a2-6)GalNAc = molecular target: Neu5Ac(a2-6)GalNAc
# Procedure, shortened: as §1
# [29] = molecular target: Neu5Ac(a2-6)GalNAc(b1-4)GlcNAc
# Procedure, shortened: as §1
# [30] = molecular target: Neu5Ac(a2-6)GlcNAc(b1-4)GlcNAc
# Procedure, shortened: as §1
# [31] = molecular target: Neu5Ac(a2-6)GlcNAc(b1-4)GlcNAc(b1-4)GlcNAc
# Procedure, shortened: as §1
# Neu5Ac(a2-8)Neu5Ac = molecular target: Neu5Ac(a2-8)Neu5Ac
# Procedure, shortened: as §1
# [32] = molecular target: Neu5Ac(a2-8)Neu5Ac(a2-3)Gal(b1-4)Glc
# Procedure, shortened: as §1
# [33] = molecular target: Neu5Ac(a2-8)Neu5Ac(a2-3)[GalNAc(b1-4)]Gal(b1-4)Glc
# Procedure, shortened: as §1
# [34] = molecular target: Neu5Ac(a2-8)Neu5Ac(a2-8)Neu5Ac
# Procedure, shortened: as §1
# [35] = molecular target: Neu5Ac(a2-8)Neu5Ac(a2-8)Neu5Ac(a2-3)Gal(b1-4)Glc
# Procedure, shortened: as §1
# [36] = molecular target: Neu5Ac(a2-8)Neu5Ac(a2-8)Neu5Ac(a2-3)[GalNAc(b1-4)]Gal(b1-4)Glc
# Procedure, shortened: as §1
# [37] = molecular target: Neu5Ac(a2-8)Neu5Ac(a2-8)Neu5Ac(a2-8)Neu5Ac(a2-3)[GalNAc(b1-4)]Gal(b1-4)Glc
# Procedure, shortened: as §1
# [38] = molecular target: Neu5Ac(b2-6)Gal(b1-4)GlcNAc
# Procedure, shortened: as §1
# Neu5Ac(b2-6)GalNAc = molecular target: Neu5Ac(b2-6)GalNAc
# Procedure, shortened: as §1
# [39] = molecular target: Neu5Ac9Ac(a2-3)Gal(b1-3)GlcNAc
# Procedure, shortened: as §1
# [40] = molecular target: Neu5Ac9Ac(a2-3)Gal(b1-4)GlcNAc
# Procedure, shortened: as §1
# [41] = molecular target: Neu5Ac9Ac(a2-6)Gal(b1-4)GlcNAc
# Procedure, shortened: as §1
# [42] = molecular target: Neu5Gc(a2-3)Gal(b1-3)GlcNAc
# Procedure, shortened: as §1
# [43] = molecular target: Neu5Gc(a2-3)Gal(b1-3)[Fuc(a1-4)]GlcNAc
# Procedure, shortened: as §1
# Neu5Gc(a2-3)Gal(b1-4)Glc = molecular target: Neu5Gc(a2-3)Gal(b1-4)Glc
# Procedure, shortened: as §1
# [44] = molecular target: Neu5Gc(a2-3)Gal(b1-4)GlcNAc
# Procedure, shortened: as §1
# [45] = molecular target: Neu5Gc(a2-3)Gal(b1-4)[Fuc(a1-3)]GlcNAc
# Procedure, shortened: as §1
# [46] = molecular target: Neu5Gc(a2-6)Gal(b1-4)GlcNAc
# Procedure, shortened: as §1
# Neu5Gc(a2-6)GalNAc = molecular target: Neu5Gc(a2-6)GalNAc
# Procedure, shortened: as §1
# [47] = molecular target: Neu5Gc(b2-6)Gal(b1-4)GlcNAc
# Procedure, shortened: as §1
binder,measurement,setting,value
B1,glycan array binding signal (z-score),[1],1.77
same,glycan array binding signal (z-score),[2],0.701
same,glycan array binding signal (z-score),[3],1.35
same,glycan array binding signal (z-score),[4],-0.627
same,glycan array binding signal (z-score),[5],-0.067
same,glycan array binding signal (z-score),[6],0.049
same,glycan array binding signal (z-score),Neu5Ac(a2-3)GalNAc,-1.07
same,glycan array binding signal (z-score),[7],0.071
same,glycan array binding signal (z-score),[8],0.981
same,glycan array binding signal (z-score),[9],-0.497
same,glycan array binding signal (z-score),[10],0.172
same,glycan array binding signal (z-score),[11],-0.586
same,glycan array binding signal (z-score),Neu5Ac(a2-6)Gal,0.412
same,glycan array binding signal (z-score),Neu5Ac(a2-6)Gal(b1-4)Glc,0.132
same,glycan array binding signal (z-score),[12],1.5
same,glycan array binding signal (z-score),[13],0.067
same,glycan array binding signal (z-score),[14],0.99
same,glycan array binding signal (z-score),[15],-0.365
same,glycan array binding signal (z-score),[16],0.411
same,glycan array binding signal (z-score),[17],0.699
same,glycan array binding signal (z-score),[18],0.305
same,glycan array binding signal (z-score),[19],-0.196
same,glycan array binding signal (z-score),[20],0.443
same,glycan array binding signal (z-score),[21],-0.792
same,glycan array binding signal (z-score),[22],-0.14
same,glycan array binding signal (z-score),[23],1.28
same,glycan array binding signal (z-score),[24],-0.494
same,glycan array binding signal (z-score),[25],0.032
same,glycan array binding signal (z-score),[26],-0.661
same,glycan array binding signal (z-score),[27],-1.24
same,glycan array binding signal (z-score),[28],-0.465
same,glycan array binding signal (z-score),Neu5Ac(a2-6)GalNAc,-0.367
same,glycan array binding signal (z-score),[29],-1.96
same,glycan array binding signal (z-score),[30],0.953
same,glycan array binding signal (z-score),[31],-0.248
same,glycan array binding signal (z-score),Neu5Ac(a2-8)Neu5Ac,0.329
same,glycan array binding signal (z-score),[32],0.726
same,glycan array binding signal (z-score),[33],0.872
same,glycan array binding signal (z-score),[34],-0.501
same,glycan array binding signal (z-score),[35],-0.292
same,glycan array binding signal (z-score),[36],-0.394
same,glycan array binding signal (z-score),[37],2.43
same,glycan array binding signal (z-score),[38],-0.275
same,glycan array binding signal (z-score),Neu5Ac(b2-6)GalNAc,0.088
same,glycan array binding signal (z-score),[39],0.98
same,glycan array binding signal (z-score),[40],-1.32
same,glycan array binding signal (z-score),[41],-1.66
same,glycan array binding signal (z-score),[42],-0.171
same,glycan array binding signal (z-score),[43],-0.987
same,glycan array binding signal (z-score),Neu5Gc(a2-3)Gal(b1-4)Glc,-1.77
same,glycan array binding signal (z-score),[44],0.756
same,glycan array binding signal (z-score),[45],-1.16
same,glycan array binding signal (z-score),[46],-0.453
same,glycan array binding signal (z-score),Neu5Gc(a2-6)GalNAc,-0.83
same,glycan array binding signal (z-score),[47],0.047

# Pulled one by one from above (3):
binder,measurement,setting,value
B1,glycan array binding signal (z-score),[25],0.032
same,glycan array binding signal (z-score),[18],0.305
same,glycan array binding signal (z-score),[44],0.756
